# From PubChem BioAssay AID504847 (National Center for Advancing Translational Sciences (NCATS), 2011)
# By UniProt entry, the sequences of proteins in these tests, tags left out. Where a name states a change or a piece, a line headed by the entry shows the natural chain unless it says otherwise.
# UniProt P11473: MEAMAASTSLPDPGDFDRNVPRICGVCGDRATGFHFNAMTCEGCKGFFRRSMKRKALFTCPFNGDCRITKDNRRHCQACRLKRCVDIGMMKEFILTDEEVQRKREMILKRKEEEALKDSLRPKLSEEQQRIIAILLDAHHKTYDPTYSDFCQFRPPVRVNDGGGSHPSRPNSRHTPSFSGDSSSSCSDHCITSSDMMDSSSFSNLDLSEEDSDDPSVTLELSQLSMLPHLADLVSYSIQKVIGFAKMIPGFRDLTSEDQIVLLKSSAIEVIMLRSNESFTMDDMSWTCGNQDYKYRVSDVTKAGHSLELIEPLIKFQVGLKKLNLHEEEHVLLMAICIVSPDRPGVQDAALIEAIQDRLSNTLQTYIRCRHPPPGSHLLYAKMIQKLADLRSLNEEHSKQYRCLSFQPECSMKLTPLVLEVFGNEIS
# Several values for one entry are separate records, joined by “and”; a condition that tells them apart may be missing. Equal entries are not always repeated. Out of some 400,000 compounds screened, about 3,700 (0.93%) were called active. Inconclusive results, whose numbers are uncertain, are shown with a selection of clear calls. The call rests on the fitted dose curve; in most records, active means well fitted inhibition curve with a large enough effect; inconclusive means small, poorly fitted or top-dose-only effect, or another doubt; inactive means no such curve, though single readings can be large or run the other way. Potencies beside an inconclusive call are fits to weak or partial responses and may not hold up.
# Molecular target: Vitamin D3 receptor (Homo sapiens) (UniProt P11473)
# Test: Inhibitors of the vitamin D receptor (VDR): qHTS
# Conditions: VDR-SRC2-3 peptide fluorescence polarization, 2 h; max response, negative = inhibition: stronger effect = lower value
# Procedure, shortened: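 VDR–SRC2-3 interaction, FP format. Cmpds 23 nl via pintool, brief spin, 2 h ambient incubation.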
# On the % scale 0 is the no-effect control and ±100 the full control effect; potency means the concentration at half of the fitted maximal effect.
Structure (SMILES),Potency,"max response, negative = inhibition"
Cc1ccc(CC(=O)NCc2ccc(Cl)cc2)cc1,"inconclusive: 22.4 µM [inhibitor, partial curve, poor fit]",–
O=C1S/C(=C\c2ccc(N3CCOCC3)o2)C(=O)N1Cc1ccc(F)cc1,"inconclusive: 56.2 µM [inhibitor, partial curve, poor fit]",–
CC(=O)NCCn1c(SCc2ccccc2C)nc2ccccc2c1=O,–,inactive: -8.34%
O=C(Nc1nc(-c2cccs2)cs1)C1=COCCO1,"inconclusive: 28.2 µM [inhibitor, full curve, poor fit]",–
CS(=O)(=O)c1ccc2nc(NC(=O)C3CC(=O)N(c4ccccc4)C3)sc2c1 (stereo unspecified),"inconclusive: 50.1 µM [inhibitor, partial curve, poor fit]",–
CCOC(=O)c1sc(N)nc1-c1ccccc1,"inconclusive: 89.1 µM [inhibitor, single point]",–
CCOC(=O)c1sc2ccccc2c1S(=O)(=O)N1CCN(c2cccc(C)c2)C(C)C1 (stereo unspecified),–,inactive: 3.2%
CC1=CC2C(=O)c3cccc(O)c3C(=O)C2C(O)=C1 (stereo unspecified),active: 25.1 µM,–
CCOc1ccc(Nc2c(S(=O)(=O)c3ccc(Cl)cc3)cnc3ccc(OCC)cc23)cc1,–,inactive: 12%
COc1cccc(NC(=O)CCc2nc3c(C)nn(-c4ccc(C)cc4)c3n(C)c2=O)c1,–,inactive: 1.02%
Oc1ccc(/C(Cc2ccccn2)=N\Nc2ccccc2)c(O)c1,–,inactive: 2.69%
CC(C)(C)C(=O)/C(=C/c1ccncc1)n1cncn1,"inconclusive: 39.8 µM [inhibitor, single point]",–
Cn1nnnc1Sc1ncnc2scc(-c3cc4ccccc4o3)c12,"inconclusive: 56.2 µM [inhibitor, partial curve, poor fit]",–
Cc1ccc(C(=O)c2no[n+]([O-])c2C(=O)c2ccc(C)cc2)cc1,"inconclusive: 20 µM [inhibitor, full curve, poor fit]",–
Nc1nn(-c2ccccc2)c(N)c1N=Nc1cccc(F)c1,"inconclusive: 79.4 µM [inhibitor, partial curve, poor fit]",–
Clc1ccc([C@H](Cn2ccnc2)OCc2c(Cl)cccc2Cl)c(Cl)c1,"inconclusive: 15.8 µM [inhibitor, partial curve]",–
CC(C)(C)c1ccc(C(=O)NC(=S)NCc2cccnc2)cc1,"inconclusive: 79.4 µM [inhibitor, partial curve, poor fit]",–
Cc1cc(N2CCN(S(=O)(=O)c3ccc(Cl)cc3)CC2)c2ccccc2n1,–,inactive: -2.09%
CC1CCc2ccccc2N1C(=N)N(C)C (stereo unspecified),"inconclusive: 79.4 µM [inhibitor, partial curve]",–
CCOC(=O)c1c(NC(=S)Nc2cccc(C)c2)sc2c1CC(C)(C)SC2,"inconclusive: 89.1 µM [inhibitor, single point]",–
Cc1c(-c2cccc(NC(=O)Nc3ccc(Cl)cc3)c2)nc2ncccn12,–,inactive: 15.2%
CCC(C)N(CCNC(=O)c1ccc(NC2=NC3CS(=O)(=O)CC3S2)cc1)Cc1ccco1 (stereo unspecified),"inconclusive: 89.1 µM [inhibitor, single point]",–

Structure (SMILES),Potency,"max response, negative = inhibition"
O=C(O)C(Cc1ccccc1)NS(=O)(=O)c1ccc2c(c1)OCCO2 (stereo unspecified),"inconclusive: 7.94 µM [inhibitor, partial curve]",–
COc1ccc(-n2c(SCC(=O)N3CCc4ccccc43)nc3c([nH]c4ccccc43)c2=O)cc1,–,inactive: 5.91%
CCC1CCCCN1S(=O)(=O)c1ccc(C(=O)Nc2sc3c(c2C(N)=O)CCC3)cc1 (stereo unspecified),"inconclusive: 28.2 µM [inhibitor, single point]",–
O=C(CSc1nnc(-c2ccccc2F)o1)Nc1cccc(C(F)(F)F)c1,–,inactive: -10.5%
COc1ccccc1CNc1cc(C)nc2nc(-c3ccc(C)cc3)nn12,–,inactive: 18.2%
C(#CCN1CCOCC1)COC(c1ccccc1)c1ccccc1,"inconclusive: 100 µM [inhibitor, partial curve, poor fit]",–
C[C@@H](C1=C(CCN(C)C)Cc2ccccc21)c1ccccn1,–,inactive: -2.5%
COC(=O)Nc1ccc(SCC(=O)c2cccc([N+](=O)[O-])c2)cc1,"inconclusive: 56.2 µM [inhibitor, partial curve, poor fit]",–
Cn1c(CN2CCCC2)nc2cc(NS(=O)(=O)c3ccccc3)ccc21,–,inactive: 4.31%
Cc1ccc(NC(=O)c2c(C)nc3sc(C(=O)Nc4ccc(F)cc4)c(N)c3c2-c2ccc(C)o2)c(C)c1,–,inactive: -14.9%
Cc1c(C(=O)NCCN2C(=O)S/C(=C\c3cccs3)C2=O)cccc1[N+](=O)[O-],"inconclusive: 79.4 µM [inhibitor, single point]",–
CCOc1ccccc1Nc1nc(-c2sc(NC(=O)c3cccc(Cl)c3)nc2C)cs1,"inconclusive: 89.1 µM [inhibitor, partial curve, poor fit]",–
COCCNC(=O)CSc1nc(-c2ccccc2)[nH]c1-c1ccc(OC)cc1,–,inactive: -18.9%
Cc1ccc(/C=N/n2c(-c3ccco3)n[nH]c2=S)s1,–,inactive: -3.74%
NC(=O)[C@@H]1CC2(CC(c3cccc(NC(=O)[C@@H]4CCC(=O)N4)c3)=NO2)CN1C(=O)Cc1ccc([N+](=O)[O-])cc1 (stereo partly specified),"inconclusive: 100 µM [inhibitor, single point]",–
Cc1ccc(/C=C/C(=O)c2ccc(C)cc2)cc1,"inconclusive: 50.1 µM [inhibitor, partial curve, poor fit]",–
Cc1cc(/C=N/NC(N)=S)c(C)n1-c1ccc(Br)cc1,"inconclusive: 79.4 µM [inhibitor, partial curve]",–
O=C(CSc1nnc(-c2ccccc2)o1)Nc1ccccc1F,"inconclusive: 79.4 µM [inhibitor, partial curve, poor fit]",–
CSc1ccc(Cn2nnc(C(=O)Nc3ccc(C)cc3Cl)c2N)cc1,–,inactive: -2.54%
CCCCNC(=O)c1onc(CSc2cccc(OC)c2)c1C(=O)O,"inconclusive: 39.8 µM [inhibitor, partial curve, poor fit]",–
CC1Cc2ccccc2N1C(=O)CCS(=O)(=O)c1ccc2c(c1)NC(=O)CS2 (stereo unspecified),"inconclusive: 22.4 µM [inhibitor, single point]",–
COC(=O)[C@H](CCSC)NC(=O)c1cc2c(cn1)[nH]c1ccccc12,active: 25.1 µM,–

# Single values from the list:
# Under max response, negative = inhibition, `Cc1ccc(/C=N/n2c(-c3ccco3)n[nH]c2=S)s1` reads inactive: -3.74%
# Under Potency, `Cc1c(C(=O)NCCN2C(=O)S/C(=C\c3cccs3)C2=O)cccc1[N+](=O)[O-]` reads inconclusive: 79.4 µM [inhibitor, single point]
# Under Potency, `CC1Cc2ccccc2N1C(=O)CCS(=O)(=O)c1ccc2c(c1)NC(=O)CS2` (stereo unspecified) reads inconclusive: 22.4 µM [inhibitor, single point]

# Additional entries.

Structure (SMILES),Potency,"max response, negative = inhibition"
Fc1ccc(-n2nnc(-c3cccnc3Cl)n2)cc1,"inconclusive: 89.1 µM [inhibitor, single point]",–
Cc1ccc(N2NC(=O)/C(=C/c3ccc(-c4ccc(Cl)c(C(=O)O)c4)o3)C2=O)cc1,"inconclusive: 89.1 µM [inhibitor, single point]",–
CCN(CC)S(=O)(=O)c1cccc(-c2n[nH]c(=S)n2/N=C/c2ccc(C(=O)OC)cc2)c1,"inconclusive: 89.1 µM [inhibitor, single point]",–
N#Cc1c2c(c(Nc3ccccc3)n3c1nc1ccccc13)CCC2,"inconclusive: 56.2 µM [inhibitor, partial curve]",–
COC(=O)CCC(=O)OC1(C)C(=O)C2=CN(CCCOC(C)C)C(c3ccc(OC)cc3)=CC2=C(Br)C1=O (stereo unspecified),"inconclusive: 50.1 µM [inhibitor, partial curve]",–
CCCCC(=O)NC1=C(C(=O)OC)SCC1,–,inactive: -4.11%
Cc1cccc(C)c1Nc1nnc(SCc2cc([N+](=O)[O-])cc3c2OCOC3)s1,–,inactive: -2.08%
NC(=O)NO,"inconclusive: 56.2 µM [inhibitor, partial curve, poor fit]",–
Clc1ccccc1C(c1ccccc1)(c1ccccc1)n1ccnc1,"inconclusive: 25.1 µM [inhibitor, partial curve] and inconclusive: 44.7 µM [inhibitor, partial curve]",–
CC(=O)Nc1ccc(S(=O)(=O)NNC(=O)c2ccc3c(c2)OCO3)cc1,–,inactive: 1.34%
COC(=O)CCC(=O)OC1(C)C(=O)C=C2C=C(C3CC3)N(Cc3ccc(OC)cc3)C=C2C1=O (stereo unspecified),–,inactive: -3.19%
O=C(CCSc1ccc(Cl)cc1)N1CCN(S(=O)(=O)c2ccccc2)CC1,"inconclusive: 89.1 µM [inhibitor, single point]",–
O=C(Oc1ccc(C(=S)N2CCOCC2)cc1Br)c1ccccc1F,"inconclusive: 100 µM [inhibitor, single point]",–
O=C(CCc1nnc(Cc2ccc3c(c2)OCO3)o1)NCc1nc2ccccc2s1,–,inactive: 1.88%
NNC(=O)CN1C(c2ccc(Br)cc2)=Nc2ccc(Br)cc2C1c1ccccc1 (stereo unspecified),"inconclusive: 89.1 µM [inhibitor, single point]",–
Cc1cccc(NC2=CC(c3cccc(Br)c3)N(c3cccc(C)c3)C2=O)c1 (stereo unspecified),"inconclusive: 56.2 µM [inhibitor, partial curve, poor fit]",–
CN1CCN(c2ccccc2/C=C2/C(=O)Nc3ccccc32)CC1,–,inactive: -4.19%
COc1cccc(CS(=O)(=O)c2nnnn2-c2ccccc2)c1,"inconclusive: 44.7 µM [inhibitor, full curve]",–
COCCC(=O)N1CCCC(C(=O)c2ccccc2SC)C1 (stereo unspecified),–,inactive: -4.85%
O=c1[nH]c2ccc(Br)cc2c(-c2ccccc2)c1CN1CCOCC1,"inconclusive: 63.1 µM [inhibitor, partial curve, poor fit]",–
Cc1cccc(C)c1Nc1nc2ccccc2nc1NS(=O)(=O)c1ccccc1,"inconclusive: 89.1 µM [inhibitor, single point]",–
COc1ccc(C(C)n2c(C)c3c(C)nnc(C)c3c2C)cc1 (stereo unspecified),–,inactive: 7.17% and inactive: -7.34%
